According to patent publication US20260034200A1, “TOLEROGENIC PEPTIDES” (University of Birmingham, priority 2022, published 2026):
At least one peptide structure holds a part that was inferred or is arguable (an end, a ring closure or a residue). Ends that are not written are not given here.

Columns and labels:
[1] = system: MHC class II molecules on fixed or non-fixed HLA-DR4 transgenic mouse splenocytes (hybridoma SC3 readout); test: Fixed APC T-cell hybridoma screen; assay type: cell-based; conditions: co-culture with formaldehyde fixed and non-fixed HLA-DR4 splenocytes, 48 h
Procedure: Splenocytes from HLA-DR4 transgenic mice were formaldehyde fixed by the following protocol performed at room temperature; 5 min incubation with 0.5% w/v formaldehyde in PBS at 1×10^6 cells/mL quenched by addition of an equal volume of 0.4 M glycine in PBS solution for a further 5 min, before three washes with cold PBS. T-cell hybridoma screens were set up using 1×10^5 hybridomas and either 2×10^5 formaldehyde fixed APCs or 2×10^5 non-fixed APCs for 48 h co-culture with stimulant or control and responses measured by IL-2 secretion.
(§1) The next step was to test if GAD65 P10.5.C+1.6K (P10Sol; SEQ ID NO 23) could bind to: (i) MHC class II molecules without antigen processing and, (ii) to steady-state CD11c^+ APCs. These properties are good indicators of whether a peptide can induce tolerance and be characterised as an apitope (Shepard et al., 2021). Formaldehyde fixation of splenocytes inhibits antigen processing and so to test whether GAD65 P10Sol could bind directly to cell-surface MHC class II without antigen processing, GAD65 P10-specific hybridoma SC3 was co-cultured with fixed or non-fixed splenocytes from HLA-DR4 transgenic mice. […] To test whether P10Sol could bind to steady-state CD11c^+ APCs in vivo, HLA-DR4 transgenic mice were injected with 80 μg of P10Sol or PBS, with CD11c^+ splenocytes isolated 1 h later and co-cultured with GAD65 P10 hybridomas SC3 or SC22. […]

[2] = system: steady-state CD11c+ APCs; test: Steady state CD11c+ peptide binding assay; assay type: in vivo, HLA-DR4 transgenic mice
Procedure: HLA-DR4 transgenic mice were injected subcutaneously with 80 μg of GAD65 P10.5.C+1.6K (GAD65 P10Sol) peptide, before isolation of CD11c^+ splenocytes 1 h later CD11c^+ positive selection kit (Miltenyi; 130-125-835). T-cell hybridoma responses were measured by secreted IL-2 after a 48 h co-culture of 0.5×10^5 CD11c^+ cells with 1×10^5 GAD65 P10-specific hybridomas with or without exogenous antigen added in vitro.
as §1

[3] = system: CD4 T-cells of HLA-DR4 transgenic mice; test: Tolerance induction and immunisation challenge with FAIM assay readout; assay type: in vivo
[4] = system: GAD65 P10-specific T-cell hybridomas; test: T-cell hybridoma screen with Priess cells as APCs, IL-2 ELISA; assay type: cell-based, mouse; conditions: relative to P10.5.C.6K; SC3 and SC22 IL-2 response
Procedure: HLA-DR4 transgenic mice were injected subcutaneously with Complete Freund's Adjuvant (CFA) and 100 μg of GAD65 P10 30-mer. After 10 days, splenocytes were isolated and re-stimulated with GAD65 P10 30-mer for a further 4-5 days before fusion with hypoxanthine-aminopterin-thymidine (HAT) sensitive BW5147 cells using polyethylene glycol (PEG). Fused hybridomas were expanded in HAT selection media before antigen-specific screening. Co-cultures of 1×10^5 hybridomas and 2×10^5 Priess cells (an Epstein-Barr Virus (EBV) transformed DR4 (DRB1*04:01) expressing human cell line (ECACC 86052111)) as antigen presenting cells (APCs) were incubated for 48 h in a 96-well plate with peptide, whole GAD65 protein, or media only. Antigen-specific responses were determined by IL-2 secretion into culture supernatant by ELISA assay (BioLegend 431004). Hybridomas that proliferated in response to both GAD65 protein and GAD65 30-mer were single cell cloned by limiting dilution.
Six 15-mers that spanned the parent 30-mer amino acid sequence were generated by 3 amino acid shifts from the N-terminus toward the C-terminus.

[5] = system: PBMCs from T1D patients (CD25+ CD71+ CTVmid CD4+ T-cells); test: FAIM assay with PBMCs from T1D patients; assay type: cell-based, human; conditions: of the P10 30-mer responders (13/34)
From the text: FIG. 7. GAD65 P10Sol response rate in T1D patients. (A) T1D PBMCs were screened using the FAIM assay for responsiveness to GAD65 P10 30-mer and GAD65 P10Sol with paired ^3H-thymidine samples were acquired for each condition. A positive response for FAIM assay required a proliferating CD25^+ CD71^+ CD4 T-cell count >25 and the population SI to be ≥2× the negative control. A positive response for the ^3H-thymidine assay required raw counts >1000 and a SI of ≥3× the negative control. […] The scale for both heat maps is Log 2 (stimulation index (SI)). […] (B) Agreement analysis for the outcomes of the flow cytometric and ^3H-thymidine proliferation readouts of the FAIM assay. (C) Paired analysis of stimulation indexes from FAIM^+ and ^3H-thymidine readouts, wilcoxon matched-pairs sign rank test.
Soluble candidate peptide GAD65 P10Sol (SEQ ID NO 23) was used as a representative peptide and tested for induction of tolerance in a suitable HLA-DR transgenic mouse model (FIG. 1A). […] The FAIM assay involves a fluorescent dye-labelled CD4^+ cell enriched culture with a primary flow cytometric readout assessing CD4 T-cell fluorescent dye dilution and cell-surface activation marker expression with optional paired readouts of ^3H-thymidine incorporation and secreted cytokine measurement. […]

Sequence: KKKWKLSGVERAKKK [Peptide P10Sol, KKKWKLSGVERAKKK]
- IL-2 response from hybridoma SC3 [1]: strong IL-2 responses
- IL-2 response of P10-specific hybridomas to CD11c+ cells from injected mice ([2]; 80 μg s.c., CD11c+ splenocytes isolated 1 h later, no exogenous peptide/protein in vitro, SC3 or SC22): strong IL-2 responses
- IL-2 response of P10-specific hybridomas to CD11c+ cells from PBS injected mice ([2]; antigen added exogenously to the in vitro culture): observed
- paired 3H-thymidine incorporation readout (overall proliferative response) ([3]; cells from treated mice re-stimulated in vitro with P10Sol or P10 30-mer): strong but not statistically significant trend towards reduced overall proliferative response
- number of antigen-specific tetramer+ FAIM+ cells ([3]; dose escalation treated mice vs PBS treated mice, 10 μg/mL re-stimulation): almost absent
- antigen-responding CTVmid CD4 T-cells co-expressing CD25/CD71 or CD25/OX40 ([3]; dose escalation treated vs PBS, FAIM flow readout): either almost absent or significantly reduced
- total CTV diluted proliferating (CTVmid) CD4 T-cells ([3]; dose escalation treated vs PBS, day 7 in vitro re-stimulation with P10 30-mer and P10Sol): significantly reduced
- increase in potency of the single-clone hybridoma response [4]: 10 fold
- T1D patients also responding (FAIM+) [5]: 38%
